This note sets out measurements from patent US20160280723.

Series [1] relates to alpha-thrombin (Homo sapiens). The experiment in a line: activity assay. The following applies: 3' thiol (3ThioMC3-D) coupled to vinyl sulfone-PEG36-azide linker 6b, tethered to cyclooctyne AFM tip; AFM unbinding force; 26.5% specific unbinding events; 7.0% and 15.6 pN after blocking with free thrombin; 1x PBS pH 7.4, loading rate 25000 pN/s; single-stranded DNA; dose not given here.

In series [2] the target is bovine serum albumin (BSA) (Bos taurus) (UniProt P02769). The series is described as follows: activity assay. The following applies: 3' thiol (3ThioMC3-D) coupled to vinyl sulfone-PEG36-azide linker 6b, tethered to cyclooctyne AFM tip; AFM nonspecific unbinding force; 6.1% events; specificity control; 1x PBS pH 7.4; protein details: immobilized on mica; single-stranded DNA; dose not given ….

For some assays here: Negatives hold for the conditions tested.

Regarding GGTTGGTGTGGTTGG, the “functional effect of the aptamer” value is “active” in series [1] and “not active” in series [2].
